Reference: PubChem BioAssay AID2685 (National Center for Advancing Translational Sciences (NCATS), 2010)
Out of some 320,000 compounds screened, about 2,100 (0.66%) were called active. The shares of active, inactive and inconclusive entries below differ from those in the screen. Calls come from the whole dose curve; as a rule, active = well fitted inhibition curve with a large enough effect in the signal ratio, with a control signal flat (not every such curve was filed as active); inconclusive = small, poorly fitted or top-dose-only effect, or effect the other way, or a change in a side signal; inactive = flat fitted curve, though single readings scatter; the % refers to the signal ratio. A potency beside an inconclusive call is a rough fit, not a confirmed value.

Assay: qHTS Assay for Lipid Storage Modulators in Drosophila S3 Cells
Settings: BODIPY lipid droplet fluorescence, 18-24 h, cells fed with added oleic acid; lipid storage change, negative = inhibition: at 46.1 µM (top of the series) unless noted
Summary of the method: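 Laser-scanning cytometry quantifies lipid droplet accumulation (500–530 nm total intensity; droplet/cell object ratio) in oleic acid-fed (400 uM added) Drosophila S3 cells treated with a concentration series. 20 uM Triacsin C defined 100% inhibition.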
% is set by controls: 0 for no effect and ±100 for the full control effect; potency is the fitted concentration of half-maximal effect.

| SMILES | Potency | lipid storage change, negative = inhibition |
| --- | --- | --- |
| COc1cc(OC)c(C#N)c(S(=O)(=O)Cc2ccccc2)c1 | inconclusive: 29.1 µM [falling, single point] | – |
| O=C(O)CSc1nc2ccccc2o1 | – | inconclusive: 54.9% |
| CC(C)CNC(=O)C1CCN(c2ccc(S(=O)(=O)N3CCOCC3)cc2Cl)CC1 | – | inconclusive: 19.6% |
| O=C(NN1C(=O)/C(=C/c2cc([N+](=O)[O-])ccc2O)SC1=S)c1ccccc1O | inconclusive: 29.1 µM [activator, single point] | – |
| CCOc1ccc(-c2cccc(NC(=O)c3ccc(Br)o3)c2)nn1 | – | inconclusive |
| COc1ccc(S(=O)(=O)N(C)C)cc1NCC(=O)Nc1cccc(C#N)c1 | – | inconclusive: 41.1% |
| Cc1ccc(C)c(S(=O)(=O)NC2CCSC2=O)c1 (stereo unspecified) | – | inconclusive |
| COC(=O)C1=NN(C(=O)c2cccc(Cl)c2)C(O)(C(C)(C)C)C1 (stereo unspecified) | – | inconclusive: 14.9% |
| Cc1onc(-c2c(F)cccc2Cl)c1C(=O)NC1CC1 | – | inconclusive: 43.9% [activator] |
| COCCNC(=O)Cn1cc2c(n1)CCC(C)C2 (stereo unspecified) | inconclusive: 20.6 µM [activator, single point] | – |
| Cc1noc(C)c1CSCC(=O)Nc1ccc(S(C)(=O)=O)cc1 | – | inconclusive: -4.32% |
| CC1(C)CC2CC(C)(CN2C(=O)COC(=O)c2n[nH]c(=O)c3ccccc23)C1 (stereo unspecified) | – | inconclusive: -13.3% |
| CC(=O)c1ccc(S(=O)(=O)N2CCc3ccccc3C2)cc1 | – | inconclusive: -10.3% |
| CN1C(=O)/C(=C2\SC(=S)N(CCCCCC(=O)O)C2=O)c2ccccc21 | – | inconclusive: -27.2% |
| CC1=NN(C(N)=S)C(=O)C1N=Nc1ccc(Br)cc1 (stereo unspecified) | inconclusive: 3.66 µM [falling, full curve] | – |
| CC(C)(C)CN1CCN(Cc2cccnc2)CC1CCO (stereo unspecified) | – | inconclusive: 21.4% |
| Cc1ccnc2nc(C(=O)Nc3nccs3)nn12 | – | inactive |
| CCCCOc1ccc(C(=O)N2CCN(CC(=O)Nc3ccc(C)cc3)CC2)cc1OC | inconclusive: 29.1 µM [falling, single point] | – |
| Brc1ccccc1OCCCN1CCCC1 | inconclusive: 6.51 µM [falling, single point] | – |
| Cc1cc(C)n(-c2ccc(C(=O)NC3=NCCS3)cc2)n1 | – | inconclusive: -3.89% |
| CCOc1ccc(S(=O)(=O)Nc2cc(F)ccc2F)c2cccnc12 | – | inconclusive: 20.2% |
| CCOc1ccc2nc(Cl)c(C3CC(c4ccccc4)=NN3C(=O)c3cccs3)cc2c1 (stereo unspecified) | inconclusive: 0.731 µM [activator, full curve] | – |
| C=CCN1C(c2ccccc2)=CS/C1=C(/C#N)c1nnc(N2CCOCC2)n1-c1ccccc1 | inconclusive: 2.06 µM [activator, full curve, poor fit] | – |
| Cc1ccccc1Cn1c2ccccc2c2cnn(CC(=O)NCc3ccccn3)c(=O)c21 | inconclusive: 6.51 µM [falling, single point] | – |
| Nc1ncnc(N)c1N=Nc1ccccc1 | inconclusive: 20.6 µM [cytotoxic, partial curve] | – |
| O=C(NNc1nc2c(F)cccc2s1)c1ccc(F)cc1 | – | inconclusive: 12.2% |

| SMILES | Potency | lipid storage change, negative = inhibition |
| --- | --- | --- |
| CS(=O)(=O)c1ccc(C(=O)NCC(c2ccco2)N2CCCCC2)cc1 (stereo unspecified) | – | inconclusive: -12.3% |
| CC(=O)NC1(c2ccccc2)CCN(C(=O)N2CCOCC2)CC1 | inconclusive: 2.31 µM [falling, partial curve, poor fit] | – |
| Cc1ccc(-n2nc3c(=O)n(CC(=O)NCCCc4ccccc4)nc(C)c3c2C)cc1 | active: 18.4 µM | – |
| Cc1ccc(S(=O)(=O)N2[C@@H](c3ccccc3F)C(C(=O)O)=CC[C@H]2c2ccc(Cl)cc2)cc1 | inconclusive: 3.26 µM [activator, partial curve] | – |
| COc1ccc(CNCc2ccncc2)cc1OC | – | inconclusive: -32.3% |
| O=C(Nc1ccccc1C(=O)N1CCOCC1)c1ccc([N+](=O)[O-])cc1 | – | inconclusive: -9.62% |
| COC(=O)c1ccc(C2c3c(oc4ccccc4c3=O)C(=O)N2CCCN2CCOCC2)cc1 (stereo unspecified) | – | inconclusive: 18% [at 9.22 µM] |
| CCC(C)NC(=O)c1ccc(CN2CCc3ccccc3C2)cc1 (stereo unspecified) | inconclusive: 8.2 µM [activator, partial curve] | – |
| Cn1c(CC2Sc3ccccc3NC2=O)nnc1SCC(=O)c1ccc(Cl)cc1 (stereo unspecified) | inconclusive: 29.1 µM [cytotoxic, single point] | – |
| O=C(C[n+]1cc(-c2ccccc2)n2c1CCC2)c1cccs1 | – | inconclusive: -45.2% |
| CCN(CC(=O)Nc1c(F)cccc1F)C(=O)c1cnc(C)cn1 | – | inconclusive: -8.59% |
| Cc1cccc(C(=O)Nc2sc3c(c2C#N)CCCCC3)c1 | – | inactive |
| COC(=O)c1cc(=O)n(CCc2ccc(OC)cc2)c(=Nc2ccc(F)c(Cl)c2)s1 | – | inconclusive: 23.5% |
| CC(=O)NCCc1cc2ccc(C)c(C)c2[nH]c1=O | inconclusive: 3.26 µM [rising, partial curve] | – |
| Cc1ccccc1C[C@H](C(=O)O)N1C(=O)c2ccc(C(=O)O)cc2C1=O | – | inconclusive: 9.16% |
| Cc1cc(S(=O)(=O)NCCCN2CCOCC2)c(Cl)cc1Cl | – | inconclusive: -73.1% |
| Cc1cnc(C(=O)NC(Cc2ccccc2)c2ccccc2)cn1 (stereo unspecified) | inconclusive: 0.731 µM [activator, full curve] | – |
| Cc1cc(C(=O)N2CCN(c3ccc(C(F)(F)F)cn3)CC2)c(C)o1 | – | inconclusive: -11% |
| O=C(Nc1cnc2ccccc2c1)c1cccnc1 | inconclusive: 6.51 µM [rising, single point] | – |
| Cc1cccc(NC(=S)/N=C(\N)Nc2nc(C)c3ccccc3n2)c1 | inconclusive: 0.92 µM [activator, partial curve] | – |
| Cn1c(-c2ccc3c(c2)OCO3)c(C(=O)O)c(=O)c2ccccc21 | – | inconclusive: -9.69% |
| CC(=O)Nc1ccc(S(=O)(=O)Oc2ccc(C=O)cc2)cc1 | inconclusive: 29.1 µM [activator, single point] | – |
| O=C(O)Cc1ccc(C(=O)c2ccccc2F)s1 | – | inconclusive: -118% |
| CCOC(=O)c1ccc(NC(=O)C(C)N2C(=O)c3ccccc3C2=O)cc1 (stereo unspecified) | inconclusive: 29.1 µM [activator, single point] | – |
| COc1ccc(S(=O)(=O)N(CC(=O)O)c2ccc(C)cc2)cc1 | – | inconclusive: -6.58% |
| COc1ccc(-c2coc3cc4oc(=O)cc(C)c4cc23)cc1F | – | inconclusive: -8.88% |

| SMILES | Potency | lipid storage change, negative = inhibition |
| --- | --- | --- |
| COc1ccc2nc(C)cc(SCC(=O)O)c2c1 | inconclusive: 14.6 µM [activator, single point] | – |
| O=C(Nc1ccccc1C(=O)N1CCOCC1)c1ccncc1 | inconclusive: 29.1 µM [cytotoxic, single point] | – |
| CC1(C)SCC(C(=O)O)N1C=O (stereo unspecified) | inconclusive: 5.8 µM [falling, full curve] | – |
| Cc1ccccc1NC(=O)/C(=C/c1ccco1)c1ccccc1 | inconclusive: 0.651 µM [activator, full curve] | – |
| CCOC(=O)c1c(C)[nH]c(C(=O)COC(=O)c2ccccc2NC(=O)c2ccco2)c1C | – | inconclusive: -3.8% |
| O=C(Nn1c(Cc2ccccc2)nc2ccccc2c1=O)c1c(O)c2cccc3c2n(c1=O)CCC3 | – | inconclusive: 25.2% |
| COc1cc(C(=S)N2CCCC2)ccc1OCc1ccccc1 | inconclusive: 6.51 µM [activator, single point] | – |
| CCC1(c2ccccc2)NC(=O)N(CC(=O)Nc2ccccc2C(=O)NC2CC2)C1=O (stereo unspecified) | – | inconclusive: 9.04% |
| CCOc1ccccc1C(=O)OCC(=O)Nc1cc(S(=O)(=O)N2CCOCC2)ccc1C | inconclusive: 0.82 µM [falling, full curve, poor fit] | – |
| CCc1ccc(CCC(=O)Nc2nnc(CC)s2)o1 | – | inconclusive: 13.5% |
| O=C(NCc1cccnc1)C1CCN(S(=O)(=O)N2CCC3(CC2)OCCO3)CC1 | – | inconclusive: 18% |
| CCCCCCCNC(=O)C1(CC2CC(c3ccc(Cl)cc3)=NO2)CCN(C(=O)Cc2ccc(F)cc2)CC1 (stereo unspecified) | – | inconclusive: -18.6% |
| N#Cc1ccc(OCC(=O)N2CCN(C(=O)c3ccco3)CC2)cc1 | inconclusive: 18.4 µM [activator, single point] | – |
| Cc1ccc(CSCCNC(=O)c2ccc(NS(C)(=O)=O)cc2)cc1 | inconclusive: 5.17 µM [falling, partial curve] | – |
| COc1ccc(CNC(=O)CCSc2nc(-c3ccc4c(c3)OCO4)cc(C(F)(F)F)n2)cc1 | inconclusive: 8.2 µM [falling, partial curve] | – |
| O=C(NCc1ccco1)c1cc2ccccc2o1 | – | inconclusive: -7.07% |
| O=c1[nH]c2ccccc2[nH]c1=O | – | inconclusive: 15% |
| O=C(Nc1cccc(C(=O)N2CCOCC2)c1)NC1CCCCC1 | – | inconclusive: 54.8% |
| O=S(=O)(c1cccc(C(F)(F)F)c1)N1CCN(C(=S)NCc2ccco2)CC1 | – | inconclusive: 0.68% |
| C[C@@H]1[C@H](O)C[C@@]23COC(=O)C2=CCCC3[C@@]1(C)CCC1COC(=O)C1 (stereo partly specified) | – | inconclusive: -6.32% |
| CCOc1ccc(-n2c(SCC(=O)OC)nc3sc4c(c3c2=O)CCN(C)C4)cc1 | – | inconclusive: 14% |
| CCOC(=O)CN1C(=O)C(O)(CC(=O)c2ccco2)c2ccccc21 (stereo unspecified) | – | inconclusive: -23.3% |
| CCOc1ccc2cc(/C=C/C(=O)c3ccco3)c(Cl)nc2c1 | inconclusive: 2.06 µM [activator, partial curve] | – |
| COc1ccc(C(=O)CCC(=O)Nc2ccc(N3CCN(C)CC3)cc2)cc1OC | – | inconclusive: 24% |

One compound at a time (already shown).
COc1ccc(-c2coc3cc4oc(=O)cc(C)c4cc23)cc1F in the list: lipid storage change, negative = inhibition: inconclusive: -8.88%
COc1ccc2nc(C)cc(SCC(=O)O)c2c1 in the list: Potency: inconclusive: 14.6 µM [activator, single point]
CC(=O)NC1(c2ccccc2)CCN(C(=O)N2CCOCC2)CC1 in the list: Potency: inconclusive: 2.31 µM [falling, partial curve, poor fit]
